# PubChem BioAssay AID1347423 (Functional Genomics Laboratory (NCATS/FGL), 2020)
# Hit rate of the full screen: of about 52,000 sequences, about 210 (0.4%) were called active.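 How the source made its calls: active means gene whose silencing raises cell survival under the drug, median off-target-corrected z-score across its silencing RNAs 2 or more; inactive means the rest.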 Some of the results follow.
# Assay: Resistance to Poly (ADP-Ribose) Polymerase inhibitor: Gene Identification via Genome-wide siRNA Screen
# Details: mouse BRCA2 R2336H ES cells, olaparib, CellTiter-Glo viability; stronger effect = higher value
# How it was run: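 Mouse BRCA2 R2336H ES cells were reverse-transfected with siRNA (20 nM final), treated at 48 h with 500 nM olaparib, and read by CellTiter-Glo after 72 h. Scores: MAD-based z per siRNA, median per gene, seed off-target correction.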
row,Sequence,z-score
1,GGUUUUAUUUGGGAUUAGCTT against Zfp289,inactive: 0.161
2,GGUGAUAAAGCUAUGUAUUTT against Ctgf,inactive: 0.649
3,CCCACAAGUUUCAUCUGACTT against 4933437N03Rik,inactive: -0.671
4,GGAGUCCAAGUUUAAGGAATT against 4930522H14Rik,inactive: -0.171
5,GGAUUGAGGCUAAGUAGCGTT against Tnfrsf13b,inactive: -0.131
6,GGGAAAAUGUGGGAAUUUUTT against C730042F17Rik,inactive: -0.172
7,GGCCCACAAAAGGUAUGAATT against AW551984,inactive: 1.75
8,GGACAUUCGGCUAUAGCACTT against P2ry2,inactive: 0.631
9,GGAAAUCACUGGUUUUCAATT against Asah2,inactive: -0.116
10,GGUGAUGCUAAGAAGUUACTT against Rnf122,inactive: -0.146
11,CCUCCAGAUAACAAAUGCATT against Dlx3,inactive: -0.365
12,GGAUCCGUGAAUGUAGUCATT against Rapgef4,inactive: -0.497
13,GCGAACUUUUACAUUUCGATT against Gmpr,inactive: 1.19
14,GGAAAAAGUGACAUUUUCUTT against AW551984,inactive: 0.934
15,GGUUUUACAUCUAUGGAGUTT against 4933417A18Rik,inactive: 1.39
16,GCCUUACCAACUUCAGUUATT against Rps27l,inactive: -1.07
17,GGUGGUGUUUGAAAAGUGUTT against Mst1,inactive: -1.94
18,GGCCAGGAUAGCACUUCUUTT against 1110007C02Rik,inactive: -0.277
19,GGUUUUUUUCUUCACAGGUTT against Olfr127,inactive: 0.486
20,CGAAUGAAAGAAUACCGUGTT against Dnajc6,inactive: -0.482
21,GGAAAAACUCCCUCGGUACTT against Rps11,inactive: -3
22,GAAAGUGUUCAGGAAGCUGTT against Klra19,inactive: 0.338
23,GGAAGGGACUGAUCGGUACTT against Igsf8,inactive: -0.15
24,CCCACUGGUUUGUUUAAACTT against Dtr,inactive: 0.614
25,GGGUAUCCAGUAUUUGAUCTT against Iqsec2,inactive: -0.162
26,GGCAGCAUGGAGAACGAGATT against Camk1,inactive: -0.509

row,Sequence,z-score
1,GGAAACAUUAGAAUCUUGUTT against 5830457H20Rik,inactive: 0.663
2,GGGCAUUUCUUUGUCUAUCTT against Nme1,inactive: -0.736
3,GGUAGCAGACAGCUACCCUTT against Tnfsf15,inactive: 0.579
4,GGUGAAAAAGGUUAGAAAATT against Wasf3,inactive: -0.0953
5,CCCUUUUACUGAGAAUAAUTT against Map2k1ip1,inactive: 0.208
6,GGAAAACCAGAAAGAAUUUTT against Crnkl1,inactive: -0.0852
7,GGACUAAAAGAUUGGUGGUTT against Polr2k,inactive: -2.6
8,GGCUUCUUUUCACAAAUAGTT against Nipsnap1,inactive: -0.0452
9,GGCUUAUACAAGGUGCUCATT against Olfr661,inactive: -0.887
10,GCUCUUCUCAGAGUGUGUATT against Rwdd3,inactive: 0.191
11,GGAGACGAUCCAAGAAGAATT against 2310009E07Rik,inactive: 1
12,GCUUUGUGGAGUUCAACCUTT against Kcnh6,inactive: 0.256
13,GGUGCAUGCACUGAAGAAGTT against Mpv17,inactive: -0.984
14,GCAGCUGGAUAUCAUAAAATT against 5033413D22Rik,inactive: 0.284
15,CCUUCUUUAAACCUCCAUGTT against Vegfc,inactive: -0.826
16,GCCUUAGGCAUUUAGAUUUTT against Zbed4,inactive: -0.495
17,GGGAACCGCUUAUAUGUCCTT against Tbx21,inactive: 0.452
18,GCAGUCUUGGAAAUAACGATT against 4930540L03Rik,inactive: -0.256
19,UUCCAUUCAUAUGUCUUGATT against Tas2r109,inactive: -1.65
20,GCACAGUAACCUAAAAUACTT against 5730590C14Rik,inactive: -0.0934
21,CGACUAGGCAUCUAUGAAGTT against Kremen2,inactive: 0.111
22,CCCUGUAUCAUGCACGUAATT against Kcnj4,inactive: -0.327
23,GCCGUGUGGUAAUAGUGUCTT against 2610209N15Rik,inactive: 0.284
24,GGAAGCACAAGUGCCACUATT against Klf13,inactive: 0.541
25,GAUCAUCGGCAUUUUGAACTT against Il4,inactive: 0.0896
26,GGCUGACUAUGCUGCCACATT against Npdc1,inactive: -1.83

# Given as tab-separated lines: entries from further up.
row	Sequence	z-score
23	GCCGUGUGGUAAUAGUGUCTT against 2610209N15Rik	inactive: 0.284
25	GAUCAUCGGCAUUUUGAACTT against Il4	inactive: 0.0896

# Carrying on:

row,Sequence,z-score
1,CGAGCUUGUUUUUGGAAGUTT against Urp,inactive: 0.286
2,GCUACUUGAAUUUAAGGAATT against Kdt1,inactive: -1.04
3,GGUACCUGAAUGACUUAUATT against Hcfc1,inactive: -2.25
4,GGCUCAAUUUGGAAAGGACTT against Anxa8,inactive: -0.00365
5,GGUCCCUGGAAACCAUCAGTT against Ssxb2,inactive: -0.917
6,GGUUCCCAAUACUAUCAGGTT against D230039L06Rik,inactive: 0.0804
7,GGUCUUCAAUAAACUCAUCTT against Bzw2,inactive: -1.36
8,CCUGUGCAUACGUUUGGCATT against Olfr1335,inactive: -1.29
9,GGUGCCUGUAUAUCUCCAATT against 9430007A20Rik,inactive: -0.897
10,CGAGCACUAUUUUGGAUUATT against Usp12,inactive: -0.0803
11,GGAACAUCUACAUUGUGGCTT against D14Ertd226e,inactive: 0.734
12,GGUUAGCAGGGACCUAAUGTT against Zfp94,inactive: 0.509
13,GCACAAACCUGUGGCAUUUTT against Cacnb3,inactive: 0.868
14,GGCUCAUUUCCUUAUAUGATT against BC027231,inactive: 0.135
15,GCCGCCUGCUAUUUUUCCUTT against AI505034,inactive: 0.681
16,GGAUAUGGAUAAAUGACAUTT against BC021875,inactive: 0.312
17,ACGAUAUGUUGACCUUGGCTT against LOC545288,inactive: -0.28
18,GCUACAUCUGCUUCCUUUUTT against Olfr623,inactive: -0.237
19,CCUUUUAUAACUGCUCUCUTT against D17Ertd441e,inactive: -0.567
20,GGAGAUCGUGGAGAUGUACTT against Myh9,inactive: -0.484
21,GGGUGUUAGAAAUCAUUAUTT against AI841987,inactive: 1.04
22,GGAAUCAAAUUUGAUGCCATT against Cckar,inactive: 0.28
23,GGGAUUUAGCACAAGAUACTT against B830045N13Rik,inactive: 1.3
24,GCCUGCAUUUACAAGUACUTT against Itm2a,inactive: -0.519
25,GGAAGAAAAAGUCCUGUCCTT against Abp1,inactive: 2.45
26,GCGAGGUGAAAAGCUUCUGTT against 5330439J01Rik,inactive: -0.26

# Pulled one by one from the entries so far:
row,Sequence,z-score
9,GGUGCCUGUAUAUCUCCAATT against 9430007A20Rik,inactive: -0.897
22,GGAAUCAAAUUUGAUGCCATT against Cckar,inactive: 0.28
6,GGUUCCCAAUACUAUCAGGTT against D230039L06Rik,inactive: 0.0804

# (listing goes on)

row,Sequence,z-score
1,GCUUUUGAUCUGGAGACCCTT against 4931406O17Rik,inactive: 0.745
2,GGAAGGUAAUAUUACAAGCTT against MGC54896,inactive: 0.135
3,GGUGGCUCUCCAAGUUCUATT against Uchl4,inactive: -0.625
4,GGACAUGUCGGUUUUGUGCTT against 1810049O03Rik,inactive: 0.309
5,CCUCUGACACCUUAGCGAATT against 4930403L05Rik,inactive: -0.647
6,GGUAACCAGUCAACACCCUTT against Cd19,inactive: 0.768
7,GCCAAUUGUGUCUAAAUUUTT against A530023O14Rik,inactive: 0.835
8,GCGAGAACCAAGACCUUUCTT against Tyms,inactive: -1.35
9,GGCUGUAAUUUUGAACAAUTT against Rnf17,inactive: -1.26
10,GGUAUCAAUAAAGUUGUUGTT against Stk11ip,inactive: 0.0177
11,GGUGAAGCAGAAAGAAAACTT against Pank4,inactive: -0.176
12,GGAACCAGAAAGGACAGUCTT against H2-Eb1,inactive: -1.15
13,GGACCAGCUGAUCUCAGUATT against Olfr1403,inactive: -1.26
14,CCACGAAUUACCUUAAAGUTT against Phf16,inactive: 2.06
15,GGAAGUUCAGAAAAAGGCATT against 1200006F02Rik,inactive: 0.592
16,GCGUGGAAAAGUGUUACCATT against 4930418P06Rik,inactive: -1.33
17,GGAAAAGUACACAAAGACCTT against Titf1,inactive: 1.08
18,CCAGAAUCGAAAUAACCAGTT against Rpgrip1,inactive: -1.52
19,GGUACAAGGUGAAGACUUCTT against Reg3a,inactive: -1.98
20,CCAAACAGAGCCAUUCUAATT against C630028N24Rik,inactive: -0.283
21,GGGCAUUGAGACUUUGCUGTT against Sit,inactive: -0.0791
22,GGACAAGGUAUUUUACGUCTT against Mars,inactive: 0.873
23,GCAUCUCCUGCCAAAGCAGTT against Ms4a2,inactive: 0.75
24,GGAUGUUGAAGAUGAGUCATT against BC023882,inactive: -0.192
25,GCGUGACCAUUAUUUCCUGTT against 7420416P09Rik,inactive: 0.406
